{
  "source": "the supplement of paper PMC8728848",
  "assay_in_all_cases": "glycan array binding signal (z-score within array); higher = stronger binding",
  "conditions_in_all_cases": "glycan notation: IUPAC condensed, linker removed",
  "key": {"[1]": {"tested_on": "Neu5Ac(a2-6)GlcNAc(b1-4)GlcNAc", "how_it_was_run": "(§1)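 The binding signal is a Z-score computed within each array and averaged over linkers. Arrays of the same protein sequence at different concentrations or buffers were also averaged together. Data originate from 3228 arrays in the Consortium for Functional Glycomics database, kept only where the protein sequence was available.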"}, "[2]": {"tested_on": "Neu5Ac(a2-8)Neu5Ac(a2-3)Gal(b1-3)GalNAc(b1-4)[Neu5Ac(a2-3)]Gal(b1-4)Glc", "how_it_was_run": "as §1"}, "[3]": {"tested_on": "Neu5Ac(a2-8)Neu5Ac(a2-3)Gal(b1-3)GalNAc(b1-4)[Neu5Ac(a2-8)Neu5Ac(a2-3)]Gal(b1-4)Glc", "how_it_was_run": "as §1"}, "[4]": {"tested_on": "Neu5Ac(a2-8)Neu5Ac(a2-3)Gal(b1-4)GlcNAc", "how_it_was_run": "as §1"}, "[5]": {"tested_on": "Neu5Ac(a2-8)Neu5Ac(a2-3)Gal(b1-4)Glc", "how_it_was_run": "as §1"}, "[6]": {"tested_on": "Neu5Ac(a2-8)Neu5Ac(a2-3)[Gal(b1-3)GalNAc(b1-4)]Gal(b1-4)Glc", "how_it_was_run": "as §1"}, "[7]": {"tested_on": "Neu5Ac(a2-8)Neu5Ac(a2-3)[GalNAc(b1-4)]Gal(b1-4)Glc", "how_it_was_run": "as §1"}, "[8]": {"tested_on": "Neu5Ac(a2-8)Neu5Ac(a2-8)Neu5Ac(a2-3)Gal(b1-4)Glc", "how_it_was_run": "as §1"}, "[9]": {"tested_on": "Neu5Ac(a2-8)Neu5Ac(a2-8)Neu5Ac(a2-3)[Gal(b1-3)GalNAc(b1-4)]Gal(b1-4)Glc", "how_it_was_run": "as §1"}, "[10]": {"tested_on": "Neu5Ac(a2-8)Neu5Ac(a2-8)Neu5Ac(a2-3)[GalNAc(b1-4)]Gal(b1-4)Glc", "how_it_was_run": "as §1"}, "[11]": {"tested_on": "Neu5Ac(a2-8)Neu5Ac(a2-8)Neu5Ac(a2-8)Neu5Ac(a2-3)[GalNAc(b1-4)]Gal(b1-4)Glc", "how_it_was_run": "as §1"}, "[12]": {"tested_on": "Neu5Ac(a2-8)Neu5Ac(a2-8)Neu5Ac", "how_it_was_run": "as §1"}, "Neu5Ac(a2-8)Neu5Ac": {"tested_on": "Neu5Ac(a2-8)Neu5Ac", "how_it_was_run": "as §1"}, "[13]": {"tested_on": "Neu5Ac(a2-8)Neu5Gc(a2-3)Gal(b1-4)GlcNAc", "how_it_was_run": "as §1"}, "[14]": {"tested_on": "Neu5Ac(b2-6)Gal(b1-4)GlcNAc", "how_it_was_run": "as §1"}, "Neu5Ac(b2-6)GalNAc": {"tested_on": "Neu5Ac(b2-6)GalNAc", "how_it_was_run": "as §1"}, "[15]": {"tested_on": "Neu5Ac9Ac(a2-3)Gal(b1-3)GlcNAc", "how_it_was_run": "as §1"}, "[16]": {"tested_on": "Neu5Ac9Ac(a2-3)Gal(b1-4)GlcNAc", "how_it_was_run": "as §1"}, "[17]": {"tested_on": "Neu5Ac9Ac(a2-6)Gal(b1-4)GlcNAc", "how_it_was_run": "as §1"}, "[18]": {"tested_on": "Neu5Gc(a2-3)Gal(b1-3)GlcNAc", "how_it_was_run": "as §1"}, "[19]": {"tested_on": "Neu5Gc(a2-3)Gal(b1-3)[Fuc(a1-4)]GlcNAc", "how_it_was_run": "as §1"}, "[20]": {"tested_on": "Neu5Gc(a2-3)Gal(b1-4)GlcNAc(b1-3)Gal(b1-4)GlcNAc(b1-2)Man(a1-3)[Neu5Gc(a2-3)Gal(b1-4)GlcNAc(b1-3)Gal(b1-4)GlcNAc(b1-2)Man(a1-6)]Man(b1-4)GlcNAc(b1-4)GlcNAc", "how_it_was_run": "as §1"}, "[21]": {"tested_on": "Neu5Gc(a2-3)Gal(b1-4)GlcNAc", "how_it_was_run": "as §1"}, "Neu5Gc(a2-3)Gal(b1-4)Glc": {"tested_on": "Neu5Gc(a2-3)Gal(b1-4)Glc", "how_it_was_run": "as §1"}, "[22]": {"tested_on": "Neu5Gc(a2-3)Gal(b1-4)[Fuc(a1-3)]GlcNAc", "how_it_was_run": "as §1"}, "[23]": {"tested_on": "Neu5Gc(a2-6)Gal(b1-4)GlcNAc", "how_it_was_run": "as §1"}, "Neu5Gc(a2-6)GalNAc": {"tested_on": "Neu5Gc(a2-6)GalNAc", "how_it_was_run": "as §1"}, "[24]": {"tested_on": "Neu5Gc(a2-8)Neu5Ac(a2-3)Gal(b1-4)GlcNAc", "how_it_was_run": "as §1"}, "[25]": {"tested_on": "Neu5Gc(a2-8)Neu5Gc(a2-3)Gal(b1-4)GlcNAc(b1-3)Gal(b1-4)GlcNAc", "how_it_was_run": "as §1"}, "[26]": {"tested_on": "Neu5Gc(a2-8)Neu5Gc(a2-3)Gal(b1-4)GlcNAc", "how_it_was_run": "as §1"}, "[27]": {"tested_on": "Neu5Gc(a2-8)Neu5Gc(a2-6)Gal(b1-4)GlcNAc", "how_it_was_run": "as §1"}, "[28]": {"tested_on": "Neu5Gc(b2-6)Gal(b1-4)GlcNAc", "how_it_was_run": "as §1"}},
  "note": "The other results are listed elsewhere or left out.",
  "data": [
    {"substance": "MpAFP RI GFP (Marinomonas primoryensis)", "values": [
      {"measurement": "glycan array binding signal (z-score)", "setting": "[1]", "result": -0.268},
      {"measurement": "glycan array binding signal (z-score)", "setting": "[2]", "result": 0.528},
      {"measurement": "glycan array binding signal (z-score)", "setting": "[3]", "result": 0.63},
      {"measurement": "glycan array binding signal (z-score)", "setting": "[4]", "result": -0.781},
      {"measurement": "glycan array binding signal (z-score)", "setting": "[5]", "result": -0.688},
      {"measurement": "glycan array binding signal (z-score)", "setting": "[6]", "result": 0.173},
      {"measurement": "glycan array binding signal (z-score)", "setting": "[7]", "result": -0.546},
      {"measurement": "glycan array binding signal (z-score)", "setting": "[8]", "result": 0.005},
      {"measurement": "glycan array binding signal (z-score)", "setting": "[9]", "result": 0.526},
      {"measurement": "glycan array binding signal (z-score)", "setting": "[10]", "result": -0.628},
      {"measurement": "glycan array binding signal (z-score)", "setting": "[11]", "result": -0.475},
      {"measurement": "glycan array binding signal (z-score)", "setting": "[12]", "result": -0.223},
      {"measurement": "glycan array binding signal (z-score)", "setting": "Neu5Ac(a2-8)Neu5Ac", "result": -0.217},
      {"measurement": "glycan array binding signal (z-score)", "setting": "[13]", "result": -0.674},
      {"measurement": "glycan array binding signal (z-score)", "setting": "[14]", "result": -0.925},
      {"measurement": "glycan array binding signal (z-score)", "setting": "Neu5Ac(b2-6)GalNAc", "result": -0.881},
      {"measurement": "glycan array binding signal (z-score)", "setting": "[15]", "result": 0.228},
      {"measurement": "glycan array binding signal (z-score)", "setting": "[16]", "result": -0.74},
      {"measurement": "glycan array binding signal (z-score)", "setting": "[17]", "result": -0.772},
      {"measurement": "glycan array binding signal (z-score)", "setting": "[18]", "result": -0.553},
      {"measurement": "glycan array binding signal (z-score)", "setting": "[19]", "result": -0.561},
      {"measurement": "glycan array binding signal (z-score)", "setting": "[20]", "result": 1.18},
      {"measurement": "glycan array binding signal (z-score)", "setting": "[21]", "result": -0.683},
      {"measurement": "glycan array binding signal (z-score)", "setting": "Neu5Gc(a2-3)Gal(b1-4)Glc", "result": 0.924},
      {"measurement": "glycan array binding signal (z-score)", "setting": "[22]", "result": 0.384},
      {"measurement": "glycan array binding signal (z-score)", "setting": "[23]", "result": -0.117},
      {"measurement": "glycan array binding signal (z-score)", "setting": "Neu5Gc(a2-6)GalNAc", "result": 1.39},
      {"measurement": "glycan array binding signal (z-score)", "setting": "[24]", "result": -0.659},
      {"measurement": "glycan array binding signal (z-score)", "setting": "[25]", "result": -0.671},
      {"measurement": "glycan array binding signal (z-score)", "setting": "[26]", "result": -0.756},
      {"measurement": "glycan array binding signal (z-score)", "setting": "[27]", "result": -0.701},
      {"measurement": "glycan array binding signal (z-score)", "setting": "[28]", "result": -0.38}
    ]}
  ]
}
